Experimental data taken from publication PMC3857177 (PLoS ONE, 2013).
Results are given in words; binding and its absence hold for the method and conditions named. Some results given as binding are weak or reduced against the parent protein; the word gives no strength. Where a sequence is shown, tags or fusion partners need not be part of it.

Sequences of proteins named here, by UniProt entry; tags and fusion partners are left off. A change or cut given only in a name is not applied to a line headed by its entry. A line that says so, or that is headed by a name, gives the form on record, which may keep a tag or linker. Residues count along the entry.
His6-tagged human Rock1 707–815 (Q13464, residues 707-815): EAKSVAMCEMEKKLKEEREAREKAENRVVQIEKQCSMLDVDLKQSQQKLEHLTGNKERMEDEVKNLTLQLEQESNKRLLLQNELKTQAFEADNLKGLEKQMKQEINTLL
human Rock1 707–946, 900ESEQLAR906 to alanine (Q13464, form named): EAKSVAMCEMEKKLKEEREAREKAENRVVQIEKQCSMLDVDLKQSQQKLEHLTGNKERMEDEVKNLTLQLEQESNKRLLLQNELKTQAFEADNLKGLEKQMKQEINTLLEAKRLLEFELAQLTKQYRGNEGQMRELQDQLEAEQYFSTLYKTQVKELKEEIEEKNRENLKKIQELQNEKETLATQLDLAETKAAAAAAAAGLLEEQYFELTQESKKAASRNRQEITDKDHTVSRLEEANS

T1: human Shrm2 SD2 domain (1427–1610), untagged (human) (UniProt Q13796)
T1 sequence: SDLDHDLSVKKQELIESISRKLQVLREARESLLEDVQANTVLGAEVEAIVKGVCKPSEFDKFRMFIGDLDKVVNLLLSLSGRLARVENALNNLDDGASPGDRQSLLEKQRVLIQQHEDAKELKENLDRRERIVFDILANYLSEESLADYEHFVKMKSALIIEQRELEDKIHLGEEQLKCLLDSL

B1: human Shrm2 SD2 domain (1427–1610), untagged (domain or fragment, UniProt Q13796 1427-1610, looked up)
chain: T1 sequence
notes: Shroom2 (Shrm2), human, Shrm Domain 2 (SD2), residues 1427-1610; Cloned into pET151/D-TOPO (His6 removable with TEV); called untagged in the pull-down; also called Shrm SD2; human Shroom2 SD2; source: E. coli BL21(DE3) Codon+(RILP), purified; not shown: His6, N-terminal, cleaved

Legend:
[1] = target: T1, human Shrm2 SD2 domain (1427–1610), untagged (human); experiment: native gel or EMSA; 10 µM Rock1 707–946 (wild type or mutant) mixed with 10 µM human Shrm2 SD2, 20 min room temperature; 12% native PAGE at 4°C, Coomassie; both purified
[2] = target: His6-tagged human Rock1 707–815 (human) (UniProt Q13464); experiment: pull-down; 25 µg purified His-tagged Rock1 fragment on nickel beads, 2x molar excess of untagged Shrm2 SD2, 10 min room temperature; 2% glycerol, 100 mM NaCl, 7 mM imidazole, 1 mM β-mercaptoethanol, 20 mM Tris pH 8.0; SDS-PAGE, Coomassie; both purified

| Molecule | binding [1] | binding [2] |
| --- | --- | --- |
| human Rock1 707–946, 900ESEQLAR906 to alanine (from UniProt Q13464 707-946) (domain or fragment) | binds |  |
| B1 |  | no binding |
